For data set [1], the target named is T1, HA-LIN28A-WT (Homo sapiens) (UniProt Q9H9Z2).
T1 sequence (looked up): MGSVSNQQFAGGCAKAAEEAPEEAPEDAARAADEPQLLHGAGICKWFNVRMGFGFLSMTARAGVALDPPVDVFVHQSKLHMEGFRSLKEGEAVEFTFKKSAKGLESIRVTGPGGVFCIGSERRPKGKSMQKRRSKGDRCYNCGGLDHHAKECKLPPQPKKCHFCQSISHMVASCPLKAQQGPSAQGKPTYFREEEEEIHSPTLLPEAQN
Description: pull-down. As to conditions: 293T lysate, anti-HA immunoblot; protein in a lysate after overexpression; residues 1-209; protein details: HA; label: biotin (T7 transcribed); letters put together from the description.

The target in data set [2] is T2, HA-LIN28A-K15R (Homo sapiens) (UniProt Q9H9Z2).
T2 sequence (looked up): T1 sequence (looked up) with K15R
Description: pull-down. As to conditions: 293T lysate, anti-HA immunoblot, less than WT; protein in a lysate after overexpression; residues 1-209; protein details: HA; label: biotin (T7 transcribed); letters put together from the description.

Positions count from the first letter of the chain named. Construct, isoform or probe ends are uncertain for at least one entry. Results from cells or extracts need not show a direct contact. For some assays here: A weaker result is weaker than the reference pair of the same experiment. Where a protein sequence is shown, tags need not be part of it.

Consider “UGAGGUAGUAGUUUGUACAGUUUGAGGGUCUAUGAUACCACCCGGUACAGGAGAUAACUGUACAGGCCACUGCCUUGC [pre-let-7g]”, for which the binding result in data set [1] is “binds”; in data set [2], “binds more weakly”.

The values are drawn from publication PMC7463354.
